# Test results published in the supplement of paper PMC12823440, “Inhibitors supercharge kinase turnover through native proteolytic circuits” (Nature, 2025).
# By UniProt entry, the sequences of proteins in these tests, tags left out. Where a name states a change or a piece, a line headed by the entry shows the natural chain unless it says otherwise.
# UniProt P29317, whole entry: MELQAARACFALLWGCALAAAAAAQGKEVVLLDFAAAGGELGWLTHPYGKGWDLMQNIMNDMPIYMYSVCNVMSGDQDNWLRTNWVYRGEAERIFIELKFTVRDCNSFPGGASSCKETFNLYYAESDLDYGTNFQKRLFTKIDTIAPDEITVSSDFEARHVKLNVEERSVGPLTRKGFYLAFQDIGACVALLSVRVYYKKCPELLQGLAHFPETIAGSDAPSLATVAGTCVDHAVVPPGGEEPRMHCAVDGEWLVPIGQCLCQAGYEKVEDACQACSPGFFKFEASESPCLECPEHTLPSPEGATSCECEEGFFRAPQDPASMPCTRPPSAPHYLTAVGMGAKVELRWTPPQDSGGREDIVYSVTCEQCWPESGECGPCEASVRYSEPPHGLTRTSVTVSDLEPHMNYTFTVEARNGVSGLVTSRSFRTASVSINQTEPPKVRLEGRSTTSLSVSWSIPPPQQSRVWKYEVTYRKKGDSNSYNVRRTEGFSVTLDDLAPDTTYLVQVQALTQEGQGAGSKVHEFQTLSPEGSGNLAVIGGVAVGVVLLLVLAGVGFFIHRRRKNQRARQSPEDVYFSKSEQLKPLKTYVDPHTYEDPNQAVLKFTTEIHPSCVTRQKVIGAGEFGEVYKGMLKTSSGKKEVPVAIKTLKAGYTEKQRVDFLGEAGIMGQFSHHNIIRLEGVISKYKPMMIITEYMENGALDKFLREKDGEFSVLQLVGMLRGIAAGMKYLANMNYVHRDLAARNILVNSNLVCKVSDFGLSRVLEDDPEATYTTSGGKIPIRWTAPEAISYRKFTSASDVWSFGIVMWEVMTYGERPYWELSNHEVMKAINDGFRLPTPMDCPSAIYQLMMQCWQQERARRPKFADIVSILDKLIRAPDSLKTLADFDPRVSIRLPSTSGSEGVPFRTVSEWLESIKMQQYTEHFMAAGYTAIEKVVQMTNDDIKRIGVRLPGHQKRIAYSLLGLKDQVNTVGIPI
# UniProt P21860, whole entry: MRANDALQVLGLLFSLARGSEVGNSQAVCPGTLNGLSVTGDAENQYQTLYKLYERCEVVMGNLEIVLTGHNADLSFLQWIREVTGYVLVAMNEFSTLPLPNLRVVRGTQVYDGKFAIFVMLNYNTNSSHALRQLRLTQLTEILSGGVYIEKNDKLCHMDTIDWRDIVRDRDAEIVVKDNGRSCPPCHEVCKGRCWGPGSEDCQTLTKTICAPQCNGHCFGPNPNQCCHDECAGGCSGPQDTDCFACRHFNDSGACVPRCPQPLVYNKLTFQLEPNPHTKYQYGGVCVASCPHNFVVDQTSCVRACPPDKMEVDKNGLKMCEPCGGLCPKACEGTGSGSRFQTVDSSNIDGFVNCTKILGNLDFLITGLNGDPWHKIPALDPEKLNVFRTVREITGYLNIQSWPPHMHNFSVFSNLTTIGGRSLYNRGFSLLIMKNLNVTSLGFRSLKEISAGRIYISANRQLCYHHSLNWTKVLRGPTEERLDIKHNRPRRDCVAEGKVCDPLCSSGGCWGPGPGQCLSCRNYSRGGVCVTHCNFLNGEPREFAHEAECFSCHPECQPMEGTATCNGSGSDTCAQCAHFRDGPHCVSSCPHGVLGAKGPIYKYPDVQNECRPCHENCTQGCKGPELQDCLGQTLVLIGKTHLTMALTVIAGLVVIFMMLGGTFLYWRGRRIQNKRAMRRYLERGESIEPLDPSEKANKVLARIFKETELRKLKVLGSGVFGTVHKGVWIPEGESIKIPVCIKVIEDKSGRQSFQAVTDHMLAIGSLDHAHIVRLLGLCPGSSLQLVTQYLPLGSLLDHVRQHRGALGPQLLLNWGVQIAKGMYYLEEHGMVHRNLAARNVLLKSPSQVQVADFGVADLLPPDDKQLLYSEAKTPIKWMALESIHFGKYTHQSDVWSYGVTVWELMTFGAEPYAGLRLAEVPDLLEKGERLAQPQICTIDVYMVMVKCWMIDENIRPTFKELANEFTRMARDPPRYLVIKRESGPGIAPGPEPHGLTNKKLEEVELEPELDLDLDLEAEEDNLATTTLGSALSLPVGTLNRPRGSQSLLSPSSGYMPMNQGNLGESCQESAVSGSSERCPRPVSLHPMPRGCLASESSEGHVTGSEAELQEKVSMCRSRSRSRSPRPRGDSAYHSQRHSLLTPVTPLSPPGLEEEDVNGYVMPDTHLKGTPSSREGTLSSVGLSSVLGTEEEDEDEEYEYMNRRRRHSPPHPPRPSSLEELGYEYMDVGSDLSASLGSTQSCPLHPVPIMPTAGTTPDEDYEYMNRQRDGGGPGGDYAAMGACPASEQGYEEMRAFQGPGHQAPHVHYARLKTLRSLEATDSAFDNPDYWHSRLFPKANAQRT
# UniProt Q15303, whole entry R711C: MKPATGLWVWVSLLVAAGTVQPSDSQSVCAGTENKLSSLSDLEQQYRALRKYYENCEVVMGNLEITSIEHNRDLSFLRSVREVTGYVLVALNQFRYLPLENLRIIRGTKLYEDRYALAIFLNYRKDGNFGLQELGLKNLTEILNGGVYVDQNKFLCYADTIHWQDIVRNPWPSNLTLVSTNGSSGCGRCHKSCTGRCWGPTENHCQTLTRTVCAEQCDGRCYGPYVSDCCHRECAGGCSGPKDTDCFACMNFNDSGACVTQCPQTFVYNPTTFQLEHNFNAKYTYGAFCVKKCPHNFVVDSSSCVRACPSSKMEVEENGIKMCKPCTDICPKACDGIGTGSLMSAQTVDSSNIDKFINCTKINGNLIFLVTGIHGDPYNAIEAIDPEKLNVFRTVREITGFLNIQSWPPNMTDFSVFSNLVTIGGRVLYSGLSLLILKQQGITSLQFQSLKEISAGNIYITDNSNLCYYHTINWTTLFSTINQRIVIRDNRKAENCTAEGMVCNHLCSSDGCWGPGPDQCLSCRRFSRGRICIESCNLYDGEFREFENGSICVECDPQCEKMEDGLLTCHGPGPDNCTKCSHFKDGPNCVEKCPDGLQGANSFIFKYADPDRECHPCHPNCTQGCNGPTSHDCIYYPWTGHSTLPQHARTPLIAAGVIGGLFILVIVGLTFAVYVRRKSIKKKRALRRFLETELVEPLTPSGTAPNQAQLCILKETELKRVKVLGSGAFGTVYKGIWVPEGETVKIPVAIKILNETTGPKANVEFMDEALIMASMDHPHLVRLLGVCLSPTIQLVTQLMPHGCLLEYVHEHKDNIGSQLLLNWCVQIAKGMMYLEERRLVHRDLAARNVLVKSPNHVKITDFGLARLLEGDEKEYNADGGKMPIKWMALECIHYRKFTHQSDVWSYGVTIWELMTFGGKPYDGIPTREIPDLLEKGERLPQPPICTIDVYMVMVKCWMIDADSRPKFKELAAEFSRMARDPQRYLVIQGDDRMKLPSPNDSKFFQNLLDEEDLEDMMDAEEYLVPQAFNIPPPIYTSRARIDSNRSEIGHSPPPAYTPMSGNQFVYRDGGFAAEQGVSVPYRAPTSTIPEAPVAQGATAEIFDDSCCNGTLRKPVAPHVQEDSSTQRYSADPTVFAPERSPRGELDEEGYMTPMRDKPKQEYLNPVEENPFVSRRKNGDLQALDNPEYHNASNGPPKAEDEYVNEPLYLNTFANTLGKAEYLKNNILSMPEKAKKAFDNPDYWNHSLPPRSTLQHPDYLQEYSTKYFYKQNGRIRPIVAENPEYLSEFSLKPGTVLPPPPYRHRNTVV
# UniProt P11362, whole entry, looked up: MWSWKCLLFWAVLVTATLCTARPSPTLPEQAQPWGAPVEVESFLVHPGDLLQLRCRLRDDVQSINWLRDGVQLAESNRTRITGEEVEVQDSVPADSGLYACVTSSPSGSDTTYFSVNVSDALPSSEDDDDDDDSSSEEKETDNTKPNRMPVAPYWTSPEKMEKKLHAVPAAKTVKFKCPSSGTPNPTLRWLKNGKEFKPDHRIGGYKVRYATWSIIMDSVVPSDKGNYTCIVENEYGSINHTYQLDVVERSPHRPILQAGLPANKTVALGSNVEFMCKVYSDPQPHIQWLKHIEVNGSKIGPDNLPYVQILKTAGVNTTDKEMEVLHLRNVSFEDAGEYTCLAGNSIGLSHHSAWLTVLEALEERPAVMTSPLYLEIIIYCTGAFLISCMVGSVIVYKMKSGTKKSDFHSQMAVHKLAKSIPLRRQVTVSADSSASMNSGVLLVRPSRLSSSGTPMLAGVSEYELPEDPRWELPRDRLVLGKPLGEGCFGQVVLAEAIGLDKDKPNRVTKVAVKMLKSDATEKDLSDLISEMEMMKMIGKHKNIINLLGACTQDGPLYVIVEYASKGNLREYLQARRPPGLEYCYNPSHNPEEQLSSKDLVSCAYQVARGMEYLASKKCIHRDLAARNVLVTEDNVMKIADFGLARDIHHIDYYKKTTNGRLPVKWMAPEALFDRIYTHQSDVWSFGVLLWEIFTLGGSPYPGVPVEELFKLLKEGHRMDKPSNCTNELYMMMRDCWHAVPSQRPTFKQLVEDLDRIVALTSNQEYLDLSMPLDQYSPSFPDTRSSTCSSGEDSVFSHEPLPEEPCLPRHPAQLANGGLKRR
# UniProt P21802, whole entry, looked up: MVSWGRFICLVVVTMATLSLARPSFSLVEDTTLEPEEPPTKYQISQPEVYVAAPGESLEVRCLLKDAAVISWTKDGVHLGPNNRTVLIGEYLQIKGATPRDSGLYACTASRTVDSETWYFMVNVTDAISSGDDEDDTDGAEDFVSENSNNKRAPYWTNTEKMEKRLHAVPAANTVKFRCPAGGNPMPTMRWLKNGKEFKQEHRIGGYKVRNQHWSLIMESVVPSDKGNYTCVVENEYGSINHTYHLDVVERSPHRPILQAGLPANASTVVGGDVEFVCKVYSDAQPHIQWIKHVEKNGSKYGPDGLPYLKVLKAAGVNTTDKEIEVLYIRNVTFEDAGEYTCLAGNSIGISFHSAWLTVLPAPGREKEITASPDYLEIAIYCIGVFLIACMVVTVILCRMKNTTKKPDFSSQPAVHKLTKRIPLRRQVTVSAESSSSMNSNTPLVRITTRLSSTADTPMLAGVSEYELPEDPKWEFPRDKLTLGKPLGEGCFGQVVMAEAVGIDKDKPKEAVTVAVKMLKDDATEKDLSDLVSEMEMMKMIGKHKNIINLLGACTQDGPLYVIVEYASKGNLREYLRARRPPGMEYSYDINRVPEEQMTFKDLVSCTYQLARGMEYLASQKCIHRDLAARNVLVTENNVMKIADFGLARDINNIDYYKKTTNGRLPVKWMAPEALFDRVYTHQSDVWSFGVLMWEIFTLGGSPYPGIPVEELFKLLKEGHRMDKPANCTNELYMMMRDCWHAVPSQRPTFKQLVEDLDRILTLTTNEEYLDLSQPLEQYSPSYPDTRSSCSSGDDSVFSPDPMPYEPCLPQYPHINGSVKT
# UniProt P06241, whole entry, looked up: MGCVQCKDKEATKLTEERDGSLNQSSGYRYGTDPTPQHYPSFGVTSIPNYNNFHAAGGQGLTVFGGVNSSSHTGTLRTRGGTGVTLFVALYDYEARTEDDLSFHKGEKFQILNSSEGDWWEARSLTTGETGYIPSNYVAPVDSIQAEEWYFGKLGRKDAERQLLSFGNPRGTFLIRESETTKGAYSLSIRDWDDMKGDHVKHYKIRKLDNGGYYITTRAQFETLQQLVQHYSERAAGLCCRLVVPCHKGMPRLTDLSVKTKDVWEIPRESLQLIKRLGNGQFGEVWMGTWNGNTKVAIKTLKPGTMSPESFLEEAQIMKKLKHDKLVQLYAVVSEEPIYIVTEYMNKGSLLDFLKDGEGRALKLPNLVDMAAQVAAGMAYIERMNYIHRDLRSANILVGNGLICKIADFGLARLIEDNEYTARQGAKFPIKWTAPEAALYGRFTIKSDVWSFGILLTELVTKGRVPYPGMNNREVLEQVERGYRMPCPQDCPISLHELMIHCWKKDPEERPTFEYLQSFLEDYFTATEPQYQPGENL
# UniProt P49840: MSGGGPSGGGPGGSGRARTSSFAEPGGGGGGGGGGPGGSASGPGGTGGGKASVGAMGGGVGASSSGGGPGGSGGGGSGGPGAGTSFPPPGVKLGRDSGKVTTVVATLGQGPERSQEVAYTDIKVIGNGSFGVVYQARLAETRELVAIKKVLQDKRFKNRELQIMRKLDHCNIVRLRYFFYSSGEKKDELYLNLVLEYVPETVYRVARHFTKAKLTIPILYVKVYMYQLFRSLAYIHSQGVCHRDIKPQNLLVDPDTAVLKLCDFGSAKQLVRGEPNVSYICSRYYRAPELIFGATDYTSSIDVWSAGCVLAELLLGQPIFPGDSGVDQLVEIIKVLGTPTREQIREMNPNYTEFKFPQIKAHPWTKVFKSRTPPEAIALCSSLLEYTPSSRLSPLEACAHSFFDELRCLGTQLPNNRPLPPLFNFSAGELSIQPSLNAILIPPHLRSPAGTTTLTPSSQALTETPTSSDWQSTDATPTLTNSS
# Structures can show the parent of a compound that is named as a salt. The list shows a part of the results. Hit calls seldom repeat between salt and free forms of one compound.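 Kinases were expressed as nanoluciferase fusions in K562 cells and luminescence was read every 4 h between 2 and 18 h as percent of control, DMSO set to 100% and a positive control to 0%. A time point counts as decreased when the signal drops significantly (2 sigma). The hit call is the authors' own, does not follow from the count of time points alone, and its rule is not shown.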
# Key:
# Experiment in all cases: kinase-Nluc reporter destabilization hit call (1 = scored as downregulated) (binary); higher = compound decreases kinase abundance
# Conditions in all cases: K562, 2-18 h
# EGFR = EGFR (UniProt P00533)
# EGFR_G719S = EGFR_G719S (UniProt P00533)
# EGFR_G719S_T790M = EGFR_G719S_T790M (UniProt P00533)
# EGFR_L718V = EGFR_L718V (UniProt P00533)
# EGFR_L858R = EGFR_L858R (UniProt P00533)
# EGFR_L861Q = EGFR_L861Q (UniProt P00533)
# EGFR_T790M = EGFR_T790M (UniProt P00533)
# EPHA2 = EPHA2 (UniProt P29317)
# ERBB3 = ERBB3 (UniProt P21860)
# [1] = molecular target: ERBB4_R711C (clone: ERBB4_mut) (UniProt Q15303)
# ERN1 = ERN1 (UniProt O75460)
# FGFR1 = FGFR1 (UniProt P11362)
# FGFR2 = FGFR2 (UniProt P21802)
# FGFR3 = FGFR3 (UniProt P22607)
# FGR = FGR (UniProt P09769)
# FLT3 = FLT3 (UniProt P36888)
# FYN = FYN (UniProt P06241)
# GSK3A = GSK3A (UniProt P49840)
# HER2 = HER2 (UniProt P04626)
# INSRR = INSRR (UniProt P14616)
structure (smiles),measurement,setting,value
FC(F)(F)c1ccc(CNc2ccc(Cc3c[nH]c4ncc(Cl)cc34)cn2)cn1 [Pexidartinib (hydrochloride)],kinase-Nluc reporter destabilization hit call,EGFR; 10 µM,inactive: 0
same,kinase-Nluc reporter destabilization hit call,EGFR_G719S; 10 µM,inactive: 0
same,kinase-Nluc reporter destabilization hit call,EGFR_G719S_T790M; 10 µM,inactive: 0
same,kinase-Nluc reporter destabilization hit call,EGFR_L718V; 10 µM,inactive: 0
same,kinase-Nluc reporter destabilization hit call,EGFR_L858R; 10 µM,inactive: 0
same,kinase-Nluc reporter destabilization hit call,EGFR_L861Q; 10 µM,inactive: 0
same,kinase-Nluc reporter destabilization hit call,EGFR_T790M; 10 µM,inactive: 0
same,kinase-Nluc reporter destabilization hit call,EPHA2; 10 µM,inactive: 0
same,kinase-Nluc reporter destabilization hit call,ERBB3; 10 µM,inactive: 0
same,kinase-Nluc reporter destabilization hit call,[1]; 10 µM,inactive: 0
same,kinase-Nluc reporter destabilization hit call,ERN1; 10 µM,inactive: 0
same,kinase-Nluc reporter destabilization hit call,FGFR1; 10 µM,inactive: 0
same,kinase-Nluc reporter destabilization hit call,FGFR2; 10 µM,inactive: 0
same,kinase-Nluc reporter destabilization hit call,FGFR3; 10 µM,inactive: 0
same,kinase-Nluc reporter destabilization hit call,FGR; 10 µM,inactive: 0
same,kinase-Nluc reporter destabilization hit call,FLT3; 10 µM,inactive: 0
same,kinase-Nluc reporter destabilization hit call,FYN; 10 µM,inactive: 0
same,kinase-Nluc reporter destabilization hit call,GSK3A; 10 µM,inactive: 0
same,kinase-Nluc reporter destabilization hit call,HER2; 10 µM,inactive: 0
same,kinase-Nluc reporter destabilization hit call,INSRR; 10 µM,inactive: 0
Cc1cccc(/C=N/Nc2cc(N3CCOCC3)nc(OCCc3ccccn3)n2)c1 [Apilimod],kinase-Nluc reporter destabilization hit call,EGFR; 2.5 µM,inactive: 0
same,kinase-Nluc reporter destabilization hit call,EGFR_G719S; 2.5 µM,inactive: 0
same,kinase-Nluc reporter destabilization hit call,EGFR_G719S_T790M; 2.5 µM,inactive: 0
same,kinase-Nluc reporter destabilization hit call,EGFR_L718V; 2.5 µM,inactive: 0
same,kinase-Nluc reporter destabilization hit call,EGFR_L858R; 2.5 µM,inactive: 0
same,kinase-Nluc reporter destabilization hit call,EGFR_L861Q; 2.5 µM,inactive: 0
same,kinase-Nluc reporter destabilization hit call,EGFR_T790M; 2.5 µM,inactive: 0
same,kinase-Nluc reporter destabilization hit call,EPHA2; 2.5 µM,inactive: 0
same,kinase-Nluc reporter destabilization hit call,ERBB3; 2.5 µM,inactive: 0
same,kinase-Nluc reporter destabilization hit call,[1]; 2.5 µM,inactive: 0
same,kinase-Nluc reporter destabilization hit call,ERN1; 2.5 µM,inactive: 0
same,kinase-Nluc reporter destabilization hit call,FGFR1; 2.5 µM,inactive: 0
same,kinase-Nluc reporter destabilization hit call,FGFR2; 2.5 µM,inactive: 0
same,kinase-Nluc reporter destabilization hit call,FGFR3; 2.5 µM,inactive: 0
same,kinase-Nluc reporter destabilization hit call,FGR; 2.5 µM,inactive: 0
same,kinase-Nluc reporter destabilization hit call,FLT3; 2.5 µM,inactive: 0
same,kinase-Nluc reporter destabilization hit call,FYN; 2.5 µM,inactive: 0
same,kinase-Nluc reporter destabilization hit call,GSK3A; 2.5 µM,inactive: 0
same,kinase-Nluc reporter destabilization hit call,HER2; 2.5 µM,inactive: 0
same,kinase-Nluc reporter destabilization hit call,INSRR; 2.5 µM,inactive: 0
C=CC(=O)Nc1cc(Nc2nccc(-c3cn(C)c4ccccc34)n2)c(OC)cc1N(C)CCN(C)C [Osimertinib mesylate],kinase-Nluc reporter destabilization hit call,EPHA2; 2.5 µM,inactive: 0
same,kinase-Nluc reporter destabilization hit call,ERBB3; 2.5 µM,inactive: 0
same,kinase-Nluc reporter destabilization hit call,[1]; 2.5 µM,inactive: 0
same,kinase-Nluc reporter destabilization hit call,ERN1; 2.5 µM,inactive: 0
same,kinase-Nluc reporter destabilization hit call,FGFR1; 2.5 µM,inactive: 0
same,kinase-Nluc reporter destabilization hit call,FGFR2; 2.5 µM,inactive: 0
same,kinase-Nluc reporter destabilization hit call,FGFR3; 2.5 µM,inactive: 0
same,kinase-Nluc reporter destabilization hit call,FGR; 2.5 µM,inactive: 0
same,kinase-Nluc reporter destabilization hit call,FLT3; 2.5 µM,inactive: 0
same,kinase-Nluc reporter destabilization hit call,FYN; 2.5 µM,inactive: 0
same,kinase-Nluc reporter destabilization hit call,GSK3A; 2.5 µM,inactive: 0
same,kinase-Nluc reporter destabilization hit call,HER2; 2.5 µM,active: 1
same,kinase-Nluc reporter destabilization hit call,INSRR; 2.5 µM,inactive: 0
CN(C)C/C=C/C(=O)Nc1cc2c(Nc3ccc(F)c(Cl)c3)ncnc2cc1O[C@H]1CCOC1 [Afatinib],kinase-Nluc reporter destabilization hit call,EPHA2; 10 µM,inactive: 0
same,kinase-Nluc reporter destabilization hit call,ERBB3; 10 µM,inactive: 0
same,kinase-Nluc reporter destabilization hit call,[1]; 10 µM,inactive: 0
same,kinase-Nluc reporter destabilization hit call,ERN1; 10 µM,inactive: 0
same,kinase-Nluc reporter destabilization hit call,FGFR1; 10 µM,inactive: 0
same,kinase-Nluc reporter destabilization hit call,FGFR2; 10 µM,inactive: 0
same,kinase-Nluc reporter destabilization hit call,FGFR3; 10 µM,inactive: 0
same,kinase-Nluc reporter destabilization hit call,FGR; 10 µM,inactive: 0
same,kinase-Nluc reporter destabilization hit call,FLT3; 10 µM,inactive: 0
same,kinase-Nluc reporter destabilization hit call,FYN; 10 µM,inactive: 0
same,kinase-Nluc reporter destabilization hit call,GSK3A; 10 µM,inactive: 0
same,kinase-Nluc reporter destabilization hit call,HER2; 10 µM,active: 1
same,kinase-Nluc reporter destabilization hit call,INSRR; 10 µM,inactive: 0
C[C@H](CCC(=O)NCCS(=O)(=O)O)[C@H]1CC[C@H]2[C@@H]3[C@@H](O)C[C@@H]4C[C@H](O)CC[C@]4(C)[C@H]3CC[C@]12C [Tauroursodeoxycholate (dihydrate)],kinase-Nluc reporter destabilization hit call,EGFR; 10 µM,inactive: 0
same,kinase-Nluc reporter destabilization hit call,EGFR_G719S; 10 µM,inactive: 0
same,kinase-Nluc reporter destabilization hit call,EGFR_G719S_T790M; 10 µM,inactive: 0
same,kinase-Nluc reporter destabilization hit call,EGFR_L718V; 10 µM,inactive: 0
same,kinase-Nluc reporter destabilization hit call,EGFR_L858R; 10 µM,inactive: 0
same,kinase-Nluc reporter destabilization hit call,EGFR_L861Q; 10 µM,inactive: 0
same,kinase-Nluc reporter destabilization hit call,EGFR_T790M; 10 µM,inactive: 0
same,kinase-Nluc reporter destabilization hit call,EPHA2; 10 µM,inactive: 0
same,kinase-Nluc reporter destabilization hit call,ERBB3; 10 µM,inactive: 0
same,kinase-Nluc reporter destabilization hit call,[1]; 10 µM,inactive: 0
same,kinase-Nluc reporter destabilization hit call,ERN1; 10 µM,inactive: 0
same,kinase-Nluc reporter destabilization hit call,FGFR1; 10 µM,inactive: 0
same,kinase-Nluc reporter destabilization hit call,FGFR2; 10 µM,inactive: 0
same,kinase-Nluc reporter destabilization hit call,FGFR3; 10 µM,inactive: 0
same,kinase-Nluc reporter destabilization hit call,FGR; 10 µM,inactive: 0
same,kinase-Nluc reporter destabilization hit call,FLT3; 10 µM,inactive: 0
same,kinase-Nluc reporter destabilization hit call,FYN; 10 µM,inactive: 0
same,kinase-Nluc reporter destabilization hit call,GSK3A; 10 µM,inactive: 0
same,kinase-Nluc reporter destabilization hit call,HER2; 10 µM,inactive: 0
same,kinase-Nluc reporter destabilization hit call,INSRR; 10 µM,inactive: 0
C[C@@H](N)[C@H]1CC[C@H](C(=O)Nc2ccncc2)CC1,kinase-Nluc reporter destabilization hit call,EPHA2; 10 µM,inactive: 0
same,kinase-Nluc reporter destabilization hit call,ERBB3; 10 µM,inactive: 0
same,kinase-Nluc reporter destabilization hit call,[1]; 10 µM,inactive: 0
same,kinase-Nluc reporter destabilization hit call,ERN1; 10 µM,inactive: 0
same,kinase-Nluc reporter destabilization hit call,FGFR1; 10 µM,inactive: 0
same,kinase-Nluc reporter destabilization hit call,FGFR2; 10 µM,inactive: 0
same,kinase-Nluc reporter destabilization hit call,FGFR3; 10 µM,inactive: 0
same,kinase-Nluc reporter destabilization hit call,FGR; 10 µM,inactive: 0
same,kinase-Nluc reporter destabilization hit call,FLT3; 10 µM,inactive: 0
same,kinase-Nluc reporter destabilization hit call,FYN; 10 µM,inactive: 0
same,kinase-Nluc reporter destabilization hit call,GSK3A; 10 µM,inactive: 0
same,kinase-Nluc reporter destabilization hit call,HER2; 10 µM,inactive: 0
same,kinase-Nluc reporter destabilization hit call,INSRR; 10 µM,inactive: 0
Cc1cccc(-c2[nH]c(CNc3ccccc3F)nc2-c2ccc3ncnn3c2)n1 [Vactosertib],kinase-Nluc reporter destabilization hit call,EGFR; 2.5 µM,inactive: 0
same,kinase-Nluc reporter destabilization hit call,EGFR_G719S; 2.5 µM,inactive: 0
same,kinase-Nluc reporter destabilization hit call,EGFR_G719S_T790M; 2.5 µM,inactive: 0
same,kinase-Nluc reporter destabilization hit call,EGFR_L718V; 2.5 µM,inactive: 0
same,kinase-Nluc reporter destabilization hit call,EGFR_L858R; 2.5 µM,inactive: 0
same,kinase-Nluc reporter destabilization hit call,EGFR_L861Q; 2.5 µM,inactive: 0
same,kinase-Nluc reporter destabilization hit call,EPHA2; 2.5 µM,inactive: 0
same,kinase-Nluc reporter destabilization hit call,ERBB3; 2.5 µM,inactive: 0
same,kinase-Nluc reporter destabilization hit call,[1]; 2.5 µM,inactive: 0
same,kinase-Nluc reporter destabilization hit call,ERN1; 2.5 µM,inactive: 0
same,kinase-Nluc reporter destabilization hit call,FGFR1; 2.5 µM,inactive: 0
same,kinase-Nluc reporter destabilization hit call,FGFR2; 2.5 µM,inactive: 0
same,kinase-Nluc reporter destabilization hit call,FGFR3; 2.5 µM,inactive: 0
same,kinase-Nluc reporter destabilization hit call,FGR; 2.5 µM,inactive: 0
same,kinase-Nluc reporter destabilization hit call,FLT3; 2.5 µM,inactive: 0
same,kinase-Nluc reporter destabilization hit call,FYN; 2.5 µM,inactive: 0
same,kinase-Nluc reporter destabilization hit call,GSK3A; 2.5 µM,inactive: 0
same,kinase-Nluc reporter destabilization hit call,HER2; 2.5 µM,inactive: 0
same,kinase-Nluc reporter destabilization hit call,INSRR; 2.5 µM,inactive: 0

# Not a retest: an excerpt of the list.
structure (smiles),measurement,setting,value
C=CC(=O)Nc1cc(Nc2nccc(-c3cn(C)c4ccccc34)n2)c(OC)cc1N(C)CCN(C)C [Osimertinib mesylate],kinase-Nluc reporter destabilization hit call,ERN1; 2.5 µM,inactive: 0
same,kinase-Nluc reporter destabilization hit call,FGFR1; 2.5 µM,inactive: 0
same,kinase-Nluc reporter destabilization hit call,FGFR2; 2.5 µM,inactive: 0

# Rewritten with bars between the fields: part of the list above
structure (smiles) | measurement | setting | value
FC(F)(F)c1ccc(CNc2ccc(Cc3c[nH]c4ncc(Cl)cc34)cn2)cn1 [Pexidartinib (hydrochloride)] | kinase-Nluc reporter destabilization hit call | ERBB3; 10 µM | inactive: 0
same | kinase-Nluc reporter destabilization hit call | [1]; 10 µM | inactive: 0
same | kinase-Nluc reporter destabilization hit call | ERN1; 10 µM | inactive: 0
